The values that follow come from article PMC6968694 (Emerging Microbes & Infections, 2020).

For the test, the target named is Glycinamide-RNase-transformylase T from Mycobacterium tuberculosis (Mycobacterium tuberculosis H37Rv) (UniProt A5TZB5). In words: crystal structure; both purified.

No constants are given. Whether binding was seen depends on the method and setting. Some binding calls cover weakened binding; strength is not graded here. Sequences can lack the tags named with a protein.

B1: Glycinamide-RNase-transformylase T from Mycobacterium tuberculosis (enzyme)
chain: MIDGWTEEQHEPTVRHERPAAPQDVRRVMLLGSAEPSRELAIALQGLGAEVIAVDGYVGAPAHRIADQSVVVTMTDAEELTAVIRRLQPDFLVTVTAAVSVDALDAVEQADGECTELVPNARAVRCTADREGLRRLAADQLGLPTAPFWFVGSLGELQAVAVHAGFPLLVSPVAGVAGQGSSVVAGPNEVEPAWQRAAGHQVQPQTGGVSPRVCAESVVEIEFLVTMIVVCSQGPNGPLIEFCAPIGHRDADAGELESWQPQKLSTAALDAAKSIAARIVKALGGRGVFGVELMINGDEVYFADVTVCPAGSAWVTVRSQRLSVFELQARAILGLAVDTLMISPGAARVINPDHTAGRAAVGAAPPADALTGALGVPESDVVIFGRGLGVALATAPEVAIARERAREVASRLNVPDSRE
notes: also called MtbPurT; PurT
Turning to B1, the binding result is on record as “binds”.
